Publication doi:10.1101/2023.02.22.529553
No constants are given. Whether binding was seen depends on the method and setting. Some results given as binding are weak or reduced against the parent protein; the word gives no strength. Each block holds one binder with its values, some of them ahead of it.

Tests used:
[1] = target: S. pistillata STING1 cyclic dinucleotide binding domain (S. pistillata); test: crystal structure; hanging-drop vapor diffusion at 18°C; purified STING at 5 mg/mL in 20 mM HEPES-KOH pH 7.5, 75 mM KCl, 1 mM TCEP with 0.5 mM cyclic dinucleotide (Sp-STING1 with 2′3′-cGAMP, Sp-STING3 with 3′3′-cGAMP); homodimer seen in the crystal; both purified
[2] = target: S. pistillata STING3 cyclic dinucleotide binding domain (S. pistillata); test: as above

- binding [1]: binds
B1: S. pistillata STING1 cyclic dinucleotide binding domain (domain or fragment, UniProt A0A2B4SJD2 181-376)
chain: NVADGLAWSYYFGYLRLVLPRLELRISESEYFRHKITDRKLFILLPKTCFTCDDIEQADSRVKWVGNLPESKINRGGIKERSYKHAVHEIVMPFPDGTEEKYHFIVEYATPLMSLYDMSRFTDAQLTGSERDHQVVLFIRKLTEILGKSEECKGRYELIPFSGDEDKNKIADILVALHNNANIMVDEEAEVSIPTQ

- binding [2]: binds
B2: S. pistillata STING3 cyclic dinucleotide binding domain (domain or fragment, UniProt A0A2B4SES9 170-354)
chain: NVADGFAWNYYFGYLKLVLPRLEAQIAKSSEFRYKITKKKLYILVPKTCYVYDNIADADPRVTWAGDLTPCKINRGGIKERIYKQAVYRVAMTDKHEYFFILEYASNLMSLYDMSLHEDAPLSRQERDDQVVLFIRKLREILEGCKECRGKCEIVPISGDEKSKIADVLVAIHNATQVESDEADL
